Binding data for one substance are collected here from paper PMC7460587.

The chains behind the UniProt entries cited, without tags or fusion partners.
UniProt P04605: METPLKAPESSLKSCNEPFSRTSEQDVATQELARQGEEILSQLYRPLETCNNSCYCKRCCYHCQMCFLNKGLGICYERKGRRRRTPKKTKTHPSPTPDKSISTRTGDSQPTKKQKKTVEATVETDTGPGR

Results are given in words; binding and its absence hold for the method and conditions named. Binding seen in cells or lysates may run through a third protein. Some results given as binding are weak or reduced against the parent protein; the word gives no strength.

The target in this assay is T1, HIV-2 Viral protein X (Vpx) (HIV-2 (ROD strain-based vector)) (UniProt P06939).
T1 sequence: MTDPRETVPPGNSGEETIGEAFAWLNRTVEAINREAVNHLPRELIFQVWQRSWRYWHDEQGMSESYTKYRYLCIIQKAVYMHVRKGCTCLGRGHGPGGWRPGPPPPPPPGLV
Nature of the assay: proximity ligation; HEK293T cells infected with wild-type or Y44A Tat mutant HIV-2 pseudovirions for 1 h at 37 °C, fixed with formaldehyde, permeabilized with 0.5% Triton-X 100; Duolink PLA Kit with anti-Vpx and anti-Tat antibodies at 1:100; fluorescence microscopy.

For “HIV-2 transactivator protein (Tat), wild-type (from UniProt P04605 1-130)”, the binding entry is “binds”.
